Test results as given in ChEMBL document CHEMBL5523702, “Synthesis and structure-activity optimization of azepane-containing derivatives as PTPN2/PTPN1 inhibitors” (Eur J Med Chem, 2024).
Converted amounts (≈) assume the structure as drawn.

Key:
[1] = Solubility of compound in FeSSIF at pH 7.4; settings: simulated gi fluid
[2] = Kinetic solubility of the compound at pH 7.4; settings: buffer
[3] = Solubility of compound in FaSSIF at pH 7.4; settings: simulated gi fluid

Molecule `CCN1CCc2cc(O)c(N3CC(=O)NS3(=O)=O)c(F)c2CC1` has a solubility [1] of 223 µM (≈ 76.6 µg/mL), a solubility kinetic [2] of 225 µM (≈ 77.3 µg/mL) and a solubility [3] of 226 µM (≈ 77.6 µg/mL).
